Results: ChEMBL document CHEMBL4316593 (Eur J Med Chem, 2019)
Further values from the same series stand in other lists.

Experiments:
Format in all cases: cell-based
Settings in all cases: U-87MG ATCC
[1] = Inhibition of RTK/PI3K/AKT/mTOR signaling in human U87 cells assessed as down regulation of CKS2 gene expression at cytotoxic IC50 measured after 48 hrs relative to control
[2] = Inhibition of RTK/PI3K/AKT/mTOR signaling in human U87 cells assessed as up regulation of ataxin 7 like 3 gene expression at cytotoxic IC50 measured after 48 hrs relative to control
[3] = Inhibition of RTK/PI3K/AKT/mTOR signaling in human U87 cells assessed as down regulation of FUBP1 gene expression at cytotoxic IC50 measured after 48 hrs relative to control
[4] = Inhibition of RTK/PI3K/AKT/mTOR signaling in human U87 cells assessed as up regulation of solute carrier family 35 member E2B gene expression at cytotoxic IC50 measured after 48 hrs relative to control
[5] = Inhibition of RTK/PI3K/AKT/mTOR signaling in human U87 cells assessed as down regulation of ATP6V1E1 gene expression at cytotoxic IC50 measured after 48 hrs relative to control
[6] = Inhibition of RTK/PI3K/AKT/mTOR signaling in human U87 cells assessed as up regulation of integrin subunit beta 5 gene expression at cytotoxic IC50 measured after 48 hrs relative to control
[7] = Inhibition of RTK/PI3K/AKT/mTOR signaling in human U87 cells assessed as up regulation of GABRD gene expression at cytotoxic IC50 measured after 48 hrs relative to control
[8] = Inhibition of RTK/PI3K/AKT/mTOR signaling in human U87 cells assessed as up regulation of PTPDC1 gene expression at cytotoxic IC50 measured after 48 hrs relative to control
[9] = Inhibition of RTK/PI3K/AKT/mTOR signaling in human U87 cells assessed as down regulation of GRB2 gene expression at cytotoxic IC50 measured after 48 hrs relative to control
[10] = Inhibition of RTK/PI3K/AKT/mTOR signaling in human U87 cells assessed as down regulation of CNOT4 gene expression at cytotoxic IC50 measured after 48 hrs relative to control
[11] = Inhibition of RTK/PI3K/AKT/mTOR signaling in human U87 cells assessed as down regulation of CENPU gene expression at cytotoxic IC50 measured after 48 hrs relative to control
[12] = Inhibition of RTK/PI3K/AKT/mTOR signaling in human U87 cells assessed as up regulation of ring finger protein 145 gene expression at cytotoxic IC50 measured after 48 hrs relative to control
[13] = Inhibition of RTK/PI3K/AKT/mTOR signaling in human U87 cells assessed as up regulation of DHRS3 gene expression at cytotoxic IC50 measured after 48 hrs relative to control
[14] = Inhibition of RTK/PI3K/AKT/mTOR signaling in human U87 cells assessed as up regulation of phosphoribosylglycinamide formyltransferase, phosphoribosylglycinamide synthetase, phosphoribosylaminoimidazole synthetase gene expression at cytotoxic IC50 measured after 48 hrs relative to control
[15] = Inhibition of RTK/PI3K/AKT/mTOR signaling in human U87 cells assessed as up regulation of IGF2BP2 gene expression at cytotoxic IC50 measured after 48 hrs relative to control
[16] = Inhibition of RTK/PI3K/AKT/mTOR signaling in human U87 cells assessed as up regulation of PDGFRL gene expression at cytotoxic IC50 measured after 48 hrs relative to control
[17] = Inhibition of RTK/PI3K/AKT/mTOR signaling in human U87 cells assessed as up regulation of ERRFI1 gene expression at cytotoxic IC50 measured after 48 hrs relative to control
[18] = Inhibition of RTK/PI3K/AKT/mTOR signaling in human U87 cells assessed as down regulation of ITPKC gene expression at cytotoxic IC50 measured after 48 hrs relative to control
[19] = Inhibition of RTK/PI3K/AKT/mTOR signaling in human U87 cells assessed as up regulation of runt related transcription factor 3 gene expression at cytotoxic IC50 measured after 48 hrs relative to control
[20] = Inhibition of RTK/PI3K/AKT/mTOR signaling in human U87 cells assessed as up regulation of immunoglobulin superfamily member 3 gene expression at cytotoxic IC50 measured after 48 hrs relative to control
[21] = Inhibition of RTK/PI3K/AKT/mTOR signaling in human U87 cells assessed as up regulation of SUSD3 gene expression at cytotoxic IC50 measured after 48 hrs relative to control
[22] = Inhibition of RTK/PI3K/AKT/mTOR signaling in human U87 cells assessed as down regulation of MAPK1 gene expression at cytotoxic IC50 measured after 48 hrs relative to control
[23] = Inhibition of RTK/PI3K/AKT/mTOR signaling in human U87 cells assessed as up regulation of NEURL1 gene expression at cytotoxic IC50 measured after 48 hrs relative to control
[24] = Inhibition of RTK/PI3K/AKT/mTOR signaling in human U87 cells assessed as down regulation of SZRD1 gene expression at cytotoxic IC50 measured after 48 hrs relative to control
[25] = Inhibition of RTK/PI3K/AKT/mTOR signaling in human U87 cells assessed as down regulation of TIMP2 gene expression at cytotoxic IC50 measured after 48 hrs relative to control
[26] = Inhibition of RTK/PI3K/AKT/mTOR signaling in human U87 cells assessed as up regulation of potassium voltage-gated channel subfamily J member 12 gene expression at cytotoxic IC50 measured after 48 hrs relative to control
[27] = Inhibition of RTK/PI3K/AKT/mTOR signaling in human U87 cells assessed as up regulation of zinc finger protein 33A gene expression at cytotoxic IC50 measured after 48 hrs relative to control
[28] = Inhibition of RTK/PI3K/AKT/mTOR signaling in human U87 cells assessed as down regulation of YTHDF3 gene expression at cytotoxic IC50 measured after 48 hrs relative to control
[29] = Inhibition of RTK/PI3K/AKT/mTOR signaling in human U87 cells assessed as down regulation of PEA15 gene expression at cytotoxic IC50 measured after 48 hrs relative to control
[30] = Inhibition of RTK/PI3K/AKT/mTOR signaling in human U87 cells assessed as up regulation of FBXO9 gene expression at cytotoxic IC50 measured after 48 hrs relative to control
[31] = Inhibition of RTK/PI3K/AKT/mTOR signaling in human U87 cells assessed as down regulation of PSMC3 gene expression at cytotoxic IC50 measured after 48 hrs relative to control
[32] = Inhibition of RTK/PI3K/AKT/mTOR signaling in human U87 cells assessed as down regulation of ZBTB11 gene expression at cytotoxic IC50 measured after 48 hrs relative to control

CC(=O)C(=NNc1ccccc1C#N)C(C)=O
log2FC [1]: -0.782 | log2FC [2]: 0.654 | log2FC [3]: -1.74 | log2FC [4]: 0.977 | log2FC [5]: -0.643 | log2FC [6]: 0.831 | log2FC [7]: 1.61 | log2FC [8]: 1.73 | log2FC [9]: -0.423 | log2FC [10]: -1.11 | log2FC [11]: -1.17 | log2FC [12]: 0.762 | log2FC [13]: 2.31 | log2FC [14]: 0.736 | log2FC [15]: 0.385 | log2FC [16]: 2.18 | log2FC [17]: 2.24 | log2FC [18]: -1.15 | log2FC [19]: 0.905 | log2FC [20]: 0.904 | log2FC [21]: 2.3 | log2FC [22]: -0.5 | log2FC [23]: 2.9 | log2FC [24]: -0.647 | log2FC [25]: -0.387 | log2FC [26]: 1.34 | log2FC [27]: 1.34 | log2FC [28]: -0.778 | log2FC [29]: -0.848 | log2FC [30]: 0.629 | log2FC [31]: -0.465 | log2FC [32]: -0.755
